From paper PMC4022412 come the findings set out here.

The chains behind the UniProt entries cited, without tags or fusion partners.
UniProt Q60857: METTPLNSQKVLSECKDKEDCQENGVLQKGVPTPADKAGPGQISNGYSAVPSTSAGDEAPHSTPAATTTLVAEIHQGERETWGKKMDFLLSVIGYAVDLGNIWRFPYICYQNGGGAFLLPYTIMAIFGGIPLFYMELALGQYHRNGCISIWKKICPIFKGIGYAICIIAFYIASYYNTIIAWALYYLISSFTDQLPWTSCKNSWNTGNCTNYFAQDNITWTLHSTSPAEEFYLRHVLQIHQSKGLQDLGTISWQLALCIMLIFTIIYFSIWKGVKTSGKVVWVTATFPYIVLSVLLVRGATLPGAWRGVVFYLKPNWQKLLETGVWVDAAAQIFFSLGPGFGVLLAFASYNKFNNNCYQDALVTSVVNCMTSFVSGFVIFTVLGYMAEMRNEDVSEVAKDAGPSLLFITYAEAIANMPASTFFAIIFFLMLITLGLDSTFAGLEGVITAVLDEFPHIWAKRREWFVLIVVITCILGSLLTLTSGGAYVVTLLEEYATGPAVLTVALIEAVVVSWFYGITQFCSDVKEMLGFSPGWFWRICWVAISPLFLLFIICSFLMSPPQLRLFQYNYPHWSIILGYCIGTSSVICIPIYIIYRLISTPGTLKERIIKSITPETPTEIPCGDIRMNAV
UniProt P46460: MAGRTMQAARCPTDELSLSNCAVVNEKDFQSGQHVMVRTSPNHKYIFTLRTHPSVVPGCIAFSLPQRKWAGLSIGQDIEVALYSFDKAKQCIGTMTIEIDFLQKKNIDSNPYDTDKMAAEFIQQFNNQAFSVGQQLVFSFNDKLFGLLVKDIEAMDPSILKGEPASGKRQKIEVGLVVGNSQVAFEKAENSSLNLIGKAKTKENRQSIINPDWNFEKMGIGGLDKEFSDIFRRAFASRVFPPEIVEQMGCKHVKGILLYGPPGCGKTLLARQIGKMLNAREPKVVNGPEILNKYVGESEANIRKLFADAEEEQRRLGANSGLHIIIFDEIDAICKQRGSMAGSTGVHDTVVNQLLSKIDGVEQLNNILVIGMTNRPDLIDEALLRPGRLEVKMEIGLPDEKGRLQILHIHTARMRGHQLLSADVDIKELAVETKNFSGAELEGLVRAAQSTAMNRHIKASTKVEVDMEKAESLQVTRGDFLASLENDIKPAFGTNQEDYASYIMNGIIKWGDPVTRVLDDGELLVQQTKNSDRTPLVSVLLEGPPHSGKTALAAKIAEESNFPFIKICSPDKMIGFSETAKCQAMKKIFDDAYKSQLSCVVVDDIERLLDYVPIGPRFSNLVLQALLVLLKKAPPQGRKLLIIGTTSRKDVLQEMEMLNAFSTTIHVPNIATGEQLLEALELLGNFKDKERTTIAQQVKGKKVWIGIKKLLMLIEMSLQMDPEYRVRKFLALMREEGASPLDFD

These are yes or no findings as the source states them, for the method shown. In cells and extracts the contact can be indirect. Some results given as binding are weak or reduced against the parent protein; the word gives no strength. For part of these data: Tags and fused reporters may be left off the sequences shown.

Assay [1] has as its target T1, GST-N-SERT (N-terminal domain of the rat serotonin transporter, residues 1 to 85, fused to glutathione S-transferase) (rat) (UniProt P31652).
T1 sequence: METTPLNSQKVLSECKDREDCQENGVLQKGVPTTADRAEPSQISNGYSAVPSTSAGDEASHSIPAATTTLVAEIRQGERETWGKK
The experiment in a line: pull-down; GST, GST-N-SERT or GST-C-SERT on glutathione agarose incubated with mouse brain extract at 4°C for 3 h; washed with TBS; Western blot; only the target purified. (A western blot detects proteins with antibodies after separation by electrophoresis.)

In assay [2] the target is serotonin transporter (SERT), endogenous in mouse brain (mouse (endogenous in mouse brain)) (UniProt Q60857). The experiment in a line: co-IP; mouse brains cross-linked in vivo by time-controlled transcardiac perfusion (tcTPC, 4% formaldehyde, 6 min); extract with 1% NP-40, 1% deoxycholate; immunoprecipitation with anti-SERT antibody and protein G-Sepharose; blot probed for NSF.

Assay [3] shares this target. The experiment in a line: condition: only without tcTPC cross-linking (detergent extract); co-IP; non-tcTPC-treated (not cross-linked) mouse brains; extract with 1% NP-40, 1% deoxycholate; immunoprecipitation with anti-SERT antibody and protein G-Sepharose; blot probed for NSF.

In the case of “N-ethylmaleimide-sensitive factor (Vesicle-fusing ATPase) (from UniProt P46460 1-744)”, the binding entry in assay [1] is on record as “binds”; in assay [2], “binds”; in assay [3], “no binding”.
